No constants are given. Whether binding was seen depends on the method and setting. Some results given as binding are weak or reduced against the parent protein; the word gives no strength.
Target: human recombinant VEGF A subunit (FIG. 12, 191 amino acid form) (human) (UniProt P15692)
Experiment: SDS-PAGE with silver stain of purified recombinant VEGF AC from Sf9 cells; under reducing conditions splits into 25/23 kDa (VEGF A) and 20 kDa (VEGF C) bands, assigned against pure subunits and by Western analysis

By UniProt entry, the sequences of proteins in these tests, tags left out. Where a name states a change or a piece, a line headed by the entry shows the natural chain unless it says otherwise. Chains listed by the source or under a name are the forms on record and can include a tag or linker.
human recombinant VEGF A subunit (FIG. 12, 191 amino acid form) (P15692, form named): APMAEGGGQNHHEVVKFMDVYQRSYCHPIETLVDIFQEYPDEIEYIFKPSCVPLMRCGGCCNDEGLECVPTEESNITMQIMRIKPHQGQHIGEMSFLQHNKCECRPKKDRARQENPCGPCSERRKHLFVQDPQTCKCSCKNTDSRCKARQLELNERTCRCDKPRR

- binding: binds
B1: human recombinant VEGF C subunit, 149 amino acid form (FIG. 11) (ligand)
chain: LPAVPPQQWALSAGNGSSEVEVVPFQEVWGRSYCRALERLVDVVSEYPSEVEHMFSPSCVSLLRCTGCCGDENLHCVPVETANVTMQLLKIRSGDRPSYVELTFSQHVRCECRPLREKMKPERCGDAVPRR

Source: patent US6569434
